These results are taken from PubChem BioAssay AID1347426 (Functional Genomics Laboratory (NCATS/FGL), 2020).

Among all 31,000 sequences or so, about 1,400 (4.5%) were called active.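 The calls were made as follows: active = median seed-adjusted z-score above 1 or below -1; inactive = the rest.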 The list shows a part of the results.

The nature of this test: Novel Modifiers of Survival Motor Neuron (SMN) Protein: Gene Identification via Genome-wide siRNA Screen. Particulars: HEK293T SMN2-luciferase reporter, siRNA knockdown, 72 h; actives lie on both sides. From the text: Spinal muscular atrophy (SMA) is the most common neuromuscular autosomal recessive disorder and one of the leading genetic causes of infant death. SMA results from mutations inducing loss of function or deletion in the survival of motor neuron-1 gene (SMN1), leading to deficiency of the survival motor neuron (SMN) protein. Although a second nearly identical gene, SMN2, is retained in humans, its expression primarily produces an aberrantly spliced isoform that is largely unstable and quickly degraded. We performed a genome-wide RNAi screen using a cell-based reporter assay to identify genes and pathways that modulate SMN protein stability. The screen identified over 200 genes that led to the greatest increase or decrease in luciferase expression.
Using HEK293T cells stably expressing a luciferase reporter that combines the promoter and splicing based cassettes in tandem with the major portion of the native SMN2 cDNA with luciferase, we performed a genome-wide RNAi screen to identify modulators of SMN protein levels. Luciferase is expressed when full-length SMN protein is generated with luminescence signal proportional to SMN protein levels. Our luciferase-based reporter assay was used to screen Ambion Silencer Select Human Druggable Genome siRNA library (10418 genes, 3 unique siRNAs per gene) using lipid-based reverse transfection.
Briefly, 1 pmol of each siRNA was spotted to a well of a 384-well plate (Corning, Corning, NY) and 20 microL of serum-free DMEM containing […] of Lipofectamine RNAiMax (Life Technologies, Carlsbad, CA) was then added to each well. Transfected cells were maintained at 37 degrees C in 5% CO2 for 72 hours, 20 microL of ONE-Glo Reagent (Promega) was added to wells for luciferase quantification. Raw luminescence reads were normalized to Ambion(R) Silencer(R) Negative Control #2 siRNA, then log10 transformed. A robust statistical measure of median absolute deviation (MAD) to standardize siRNA activities from each screen. Common Seed Analysis was used to help prioritize clean hits as opposed to those appearing to arise from seed based off-target effects. Candidate modulators were defined as the genes having a MAD score greater than 1.0 or less than -1.0.
In general terms: Reporter assays use an easily measured gene product as a stand-in for the process of interest.
Turning to GGAUCUUUCUGGAUCGCAUTT against IMPG1, the median seed-adjusted z-score is inactive: -0.252. Turning to GGGCUUAUUUUGUGAGAAUTT against ZBTB6, the median seed-adjusted z-score is inactive: -0.225. The same measure for GACAAUAUCGGAUCGAUAUTT against CEBPZ: inactive: 0.301; for UGAUUAUCUUCACACCUAATT against OGDHL: inactive: -0.0878.

Consider GGACCUCUCUCUUACCAGUTT against MSX1, for which the median seed-adjusted z-score is inactive: 0.757. Consider GUGUAUCGGUGAGACCAUUTT against CYP1A1, for which the median seed-adjusted z-score is inactive: 0.124. With GGAAGAAAGCGGGACUUUUTT against PPME1 the figure was inactive: 0.342.

In the case of GGACUCAGCAGGAUACAAUTT against FOXJ2, the median seed-adjusted z-score was inactive: -0.627.

In the case of GCUCGUUGGGACCAACUAATT against DYNC2H1, the median seed-adjusted z-score is inactive: -0.613.

In the case of GCCUUAACCCAGAUGCACATT against GPR128, the median seed-adjusted z-score is inactive: -0.208.

AGAGAGAGAUUAUCACAUUTT against MYH7: the median seed-adjusted z-score is inactive: 0.659. For the sequence CCUAUGAUGUGCUAAGUGATT against DNAJB5, the median seed-adjusted z-score was inactive: -0.444.

In the case of GCGACUUCAUGAUAGCAUATT against CAMK2D, the median seed-adjusted z-score was inactive: 0.0676. Take AAAUGACCCUGUUACCAACTT against RXRG: the median seed-adjusted z-score is inactive: 0.16. The same measure for UGACAGUGCUACAUCCUUUTT against AICDA: inactive: 0.289; for GCAAGAUCCUCAAUGCGCATT against NUP62: inactive: 0. For the sequence UGACAUCGUUGGUCCGGAUTT against FBL, the median seed-adjusted z-score was inactive: -0.0592. On to CAGUCCCAAUUUCCACUUUTT against PCDHB2, for which the median seed-adjusted z-score was inactive: 0. Turning to ACAUCUGCAUUGGACAACUTT against ZDHHC24, the median seed-adjusted z-score was inactive: -0.695. Take GGAAGGGCUUGGUGAUCUATT against EFNB1: the median seed-adjusted z-score is inactive: -0.448. In the case of GGCAAGCACUUCUUUCUUUTT against XRCC1, the median seed-adjusted z-score is inactive: 0.0431. Consider GAUUGGAACUUGGUAUUCATT against GALNT2, for which the median seed-adjusted z-score is inactive: 0.0798. Regarding CCACCUCACUUGAAGCUUUTT against VRK3, the median seed-adjusted z-score is inactive: -0.526.

Take CCCUAUGAGUGUCAACAAUTT against ZNF799: the median seed-adjusted z-score was active: -1.02.

For the sequence GGAAUUAUCCCUCAAAGCATT against METT10D, the median seed-adjusted z-score was inactive: 0.455. The same measure for CCUGAGCUAUAAUGAGCUATT against PARP12: inactive: -0.287; for GCAUUAACCCAAUUGCUCUTT against EDNRB: inactive: 0.119; for GUACGAGGGUCUCAGAAUATT against BICC1: inactive: -0.352. The same measure for GAUUAGAUGUGACUGUACATT against FAM98B: inactive: -0.0162; for GGUCCUACCUCGAGCAUAATT against TTLL5: inactive: 0; for GGCACUUAAGGUUCGCUAUTT against PPP4C: active: 1.15. GCAGUAGACUGAGCAGCAATT against TMTC4: the median seed-adjusted z-score is active: -1.16. Regarding GGUUGUUGCUAAAGACAUATT against HSDL1, the median seed-adjusted z-score was inactive: 0.0547. The same measure for CAUCCAGCCCUUAUACAAATT against RBM24: inactive: 0.0471. AGAGCAACGUGAAAGUGCATT against FOXRED1: the median seed-adjusted z-score is inactive: 0.447. With CACUUCAUAUCUCCUAAUATT against PSMB7 the figure was inactive: 0.131. For the sequence GGACGGAUCUGCUCAGAAATT against LSM4, the median seed-adjusted z-score is inactive: -0.679. With “CUUCAGUACCUUAUCAUUATT against ST6GALNAC5”, the median seed-adjusted z-score is inactive: -0.0321. With UCACUGUGCUGAUCGGGAATT against TAZ the figure was inactive: 0.0549; with CAACCGCACUCGGUAUGAATT against PROCR, inactive: -0.476.

Regarding GGGCAGACCUCAACACCAATT against TEAD4, the median seed-adjusted z-score is inactive: 0.0908. Turning to GGAACAUCUUUGUACCUAUTT against NARG1, the median seed-adjusted z-score was active: -1.02.

Regarding UCCAAGUCCUGGACUAUGATT against SYT7, the median seed-adjusted z-score was inactive: -0.762. For CAAAGUAUCUGGAGAACCATT against KIF2C, the median seed-adjusted z-score is inactive: 0.0122. Consider GCAGAAAACGGUGUAUAAATT against USP2, for which the median seed-adjusted z-score was inactive: -0.0321. As for CCAUAGCCGUCUACUCUUUTT against BEST4, the median seed-adjusted z-score is inactive: -0.207. Regarding ACAUACUCCCUGAAGCUGATT against GBP1, the median seed-adjusted z-score is inactive: -0.232. Consider GCUCCUUAGCUGCUGAUAATT against HSD17B4, for which the median seed-adjusted z-score was inactive: 0. For the sequence GAUCCAAGCUAAUAUGAGATT against TGM5, the median seed-adjusted z-score is inactive: 0.0181. For GUGUCCGAGUGGUGAAUCATT against NVL, the median seed-adjusted z-score was inactive: 0.701.

As to GCACCACCCGUUGAAGUCATT against DNAJB13, the median seed-adjusted z-score was inactive: 0.092. For GCUCCAACCUUAUUACCCATT against ZNF629, the median seed-adjusted z-score is inactive: 0.0602. Take GGGACUUCAUGUUCGAGCATT against DNAI2: the median seed-adjusted z-score is inactive: 0.12. For the sequence GGAAUUCCGUUACGGCCUATT against ADIPOR1, the median seed-adjusted z-score is inactive: 0.
